PubChem BioAssay AID1259254 – NCATS – 2017
This is a random part of about 59,000 reagents. About 1,550 of all reagents (2.6%) were called active. 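G2 share is only a proxy for re-replication; each gene was hit by three separate siRNAs, and active genes were retested.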 Unmarked entries are inactive. Reagents against one gene are numbered here. Not all columns of the deposit are shown. Reagent sequences are not shown. The record does not give: the amount of reagent.

- Test: 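Genome-wide screen for genes that prevent DNA re-replication in cancer cells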 (primary screen)
- System: human HCT116 colorectal cancer cells
- Knock-down reagent: single siRNA against human genes
- Timing: 3 days
- Measurement: 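Imaged Hoechst DNA stain sorts each cell into a cycle phase by DNA amount; per plate, G2 fraction set to 0% for non-targeting and 100% for GMNN siRNA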
- Reading the numbers: G2 robust z-score: higher = more G2 cells, more excess DNA replication
- Hit rule: 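Active siRNAs have a G2 robust z of 5 or more median absolute deviations over the median, which in these data means about 38% or higher of GMNN control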

After knock-down of APOC3 #1 the results were G2 robust z-score -0.507.
APOC3 #2 scored G2 robust z-score 1.26.
After knock-down of APOC3 #3, the record shows G2 robust z-score 0.452.
With knock-down of PSMB2 #1, the screen gave G2 robust z-score 3.1.
Silencing of PSMB2 #2 gave: G2 robust z-score 1.53.
Silencing of PSMB2 #3 gave: G2 robust z-score 2.95.
Silencing of FAM209B #1 resulted in: G2 robust z-score 0.467.
Silencing of FAM209B #2 came out at: G2 robust z-score -0.0891.
Depletion of FAM209B #3 resulted in: G2 robust z-score 0.0354.
After knock-down of ABCA3 #1 the results were G2 robust z-score -0.921.
With knock-down of ABCA3 #2, the record shows G2 robust z-score -1.47.
Depletion of ABCA3 #3 gave: G2 robust z-score -0.913.

Not a retest: an excerpt of the list.
PSMB2 #3 — G2 robust z-score = 2.95
FAM209B #1 — G2 robust z-score = 0.467
